Measurements as given in publication PMC8315024.
No constants are given. Whether binding was seen depends on the method and setting. Binding seen in cells or lysates may run through a third protein. Some results given as binding are weak or reduced against the parent protein; the word gives no strength.

Amino acid sequences for entries named in this document (tags omitted). Residues count along the entry.
UniProt Q04206: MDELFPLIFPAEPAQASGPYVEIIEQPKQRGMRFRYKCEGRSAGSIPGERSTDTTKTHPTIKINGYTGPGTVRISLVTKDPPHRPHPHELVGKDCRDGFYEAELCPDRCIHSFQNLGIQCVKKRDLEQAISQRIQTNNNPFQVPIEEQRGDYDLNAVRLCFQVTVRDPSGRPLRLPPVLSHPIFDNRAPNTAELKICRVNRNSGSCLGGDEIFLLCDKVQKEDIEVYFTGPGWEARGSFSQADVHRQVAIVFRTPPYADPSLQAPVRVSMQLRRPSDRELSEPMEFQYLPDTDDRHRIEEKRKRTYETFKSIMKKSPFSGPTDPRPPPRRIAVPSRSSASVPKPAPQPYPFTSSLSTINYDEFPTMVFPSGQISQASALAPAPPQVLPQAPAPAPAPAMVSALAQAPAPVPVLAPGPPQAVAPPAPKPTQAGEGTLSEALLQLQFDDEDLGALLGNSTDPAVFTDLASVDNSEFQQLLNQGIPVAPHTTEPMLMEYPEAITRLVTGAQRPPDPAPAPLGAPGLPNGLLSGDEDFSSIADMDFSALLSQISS
UniProt Q02505, residues 16-3323: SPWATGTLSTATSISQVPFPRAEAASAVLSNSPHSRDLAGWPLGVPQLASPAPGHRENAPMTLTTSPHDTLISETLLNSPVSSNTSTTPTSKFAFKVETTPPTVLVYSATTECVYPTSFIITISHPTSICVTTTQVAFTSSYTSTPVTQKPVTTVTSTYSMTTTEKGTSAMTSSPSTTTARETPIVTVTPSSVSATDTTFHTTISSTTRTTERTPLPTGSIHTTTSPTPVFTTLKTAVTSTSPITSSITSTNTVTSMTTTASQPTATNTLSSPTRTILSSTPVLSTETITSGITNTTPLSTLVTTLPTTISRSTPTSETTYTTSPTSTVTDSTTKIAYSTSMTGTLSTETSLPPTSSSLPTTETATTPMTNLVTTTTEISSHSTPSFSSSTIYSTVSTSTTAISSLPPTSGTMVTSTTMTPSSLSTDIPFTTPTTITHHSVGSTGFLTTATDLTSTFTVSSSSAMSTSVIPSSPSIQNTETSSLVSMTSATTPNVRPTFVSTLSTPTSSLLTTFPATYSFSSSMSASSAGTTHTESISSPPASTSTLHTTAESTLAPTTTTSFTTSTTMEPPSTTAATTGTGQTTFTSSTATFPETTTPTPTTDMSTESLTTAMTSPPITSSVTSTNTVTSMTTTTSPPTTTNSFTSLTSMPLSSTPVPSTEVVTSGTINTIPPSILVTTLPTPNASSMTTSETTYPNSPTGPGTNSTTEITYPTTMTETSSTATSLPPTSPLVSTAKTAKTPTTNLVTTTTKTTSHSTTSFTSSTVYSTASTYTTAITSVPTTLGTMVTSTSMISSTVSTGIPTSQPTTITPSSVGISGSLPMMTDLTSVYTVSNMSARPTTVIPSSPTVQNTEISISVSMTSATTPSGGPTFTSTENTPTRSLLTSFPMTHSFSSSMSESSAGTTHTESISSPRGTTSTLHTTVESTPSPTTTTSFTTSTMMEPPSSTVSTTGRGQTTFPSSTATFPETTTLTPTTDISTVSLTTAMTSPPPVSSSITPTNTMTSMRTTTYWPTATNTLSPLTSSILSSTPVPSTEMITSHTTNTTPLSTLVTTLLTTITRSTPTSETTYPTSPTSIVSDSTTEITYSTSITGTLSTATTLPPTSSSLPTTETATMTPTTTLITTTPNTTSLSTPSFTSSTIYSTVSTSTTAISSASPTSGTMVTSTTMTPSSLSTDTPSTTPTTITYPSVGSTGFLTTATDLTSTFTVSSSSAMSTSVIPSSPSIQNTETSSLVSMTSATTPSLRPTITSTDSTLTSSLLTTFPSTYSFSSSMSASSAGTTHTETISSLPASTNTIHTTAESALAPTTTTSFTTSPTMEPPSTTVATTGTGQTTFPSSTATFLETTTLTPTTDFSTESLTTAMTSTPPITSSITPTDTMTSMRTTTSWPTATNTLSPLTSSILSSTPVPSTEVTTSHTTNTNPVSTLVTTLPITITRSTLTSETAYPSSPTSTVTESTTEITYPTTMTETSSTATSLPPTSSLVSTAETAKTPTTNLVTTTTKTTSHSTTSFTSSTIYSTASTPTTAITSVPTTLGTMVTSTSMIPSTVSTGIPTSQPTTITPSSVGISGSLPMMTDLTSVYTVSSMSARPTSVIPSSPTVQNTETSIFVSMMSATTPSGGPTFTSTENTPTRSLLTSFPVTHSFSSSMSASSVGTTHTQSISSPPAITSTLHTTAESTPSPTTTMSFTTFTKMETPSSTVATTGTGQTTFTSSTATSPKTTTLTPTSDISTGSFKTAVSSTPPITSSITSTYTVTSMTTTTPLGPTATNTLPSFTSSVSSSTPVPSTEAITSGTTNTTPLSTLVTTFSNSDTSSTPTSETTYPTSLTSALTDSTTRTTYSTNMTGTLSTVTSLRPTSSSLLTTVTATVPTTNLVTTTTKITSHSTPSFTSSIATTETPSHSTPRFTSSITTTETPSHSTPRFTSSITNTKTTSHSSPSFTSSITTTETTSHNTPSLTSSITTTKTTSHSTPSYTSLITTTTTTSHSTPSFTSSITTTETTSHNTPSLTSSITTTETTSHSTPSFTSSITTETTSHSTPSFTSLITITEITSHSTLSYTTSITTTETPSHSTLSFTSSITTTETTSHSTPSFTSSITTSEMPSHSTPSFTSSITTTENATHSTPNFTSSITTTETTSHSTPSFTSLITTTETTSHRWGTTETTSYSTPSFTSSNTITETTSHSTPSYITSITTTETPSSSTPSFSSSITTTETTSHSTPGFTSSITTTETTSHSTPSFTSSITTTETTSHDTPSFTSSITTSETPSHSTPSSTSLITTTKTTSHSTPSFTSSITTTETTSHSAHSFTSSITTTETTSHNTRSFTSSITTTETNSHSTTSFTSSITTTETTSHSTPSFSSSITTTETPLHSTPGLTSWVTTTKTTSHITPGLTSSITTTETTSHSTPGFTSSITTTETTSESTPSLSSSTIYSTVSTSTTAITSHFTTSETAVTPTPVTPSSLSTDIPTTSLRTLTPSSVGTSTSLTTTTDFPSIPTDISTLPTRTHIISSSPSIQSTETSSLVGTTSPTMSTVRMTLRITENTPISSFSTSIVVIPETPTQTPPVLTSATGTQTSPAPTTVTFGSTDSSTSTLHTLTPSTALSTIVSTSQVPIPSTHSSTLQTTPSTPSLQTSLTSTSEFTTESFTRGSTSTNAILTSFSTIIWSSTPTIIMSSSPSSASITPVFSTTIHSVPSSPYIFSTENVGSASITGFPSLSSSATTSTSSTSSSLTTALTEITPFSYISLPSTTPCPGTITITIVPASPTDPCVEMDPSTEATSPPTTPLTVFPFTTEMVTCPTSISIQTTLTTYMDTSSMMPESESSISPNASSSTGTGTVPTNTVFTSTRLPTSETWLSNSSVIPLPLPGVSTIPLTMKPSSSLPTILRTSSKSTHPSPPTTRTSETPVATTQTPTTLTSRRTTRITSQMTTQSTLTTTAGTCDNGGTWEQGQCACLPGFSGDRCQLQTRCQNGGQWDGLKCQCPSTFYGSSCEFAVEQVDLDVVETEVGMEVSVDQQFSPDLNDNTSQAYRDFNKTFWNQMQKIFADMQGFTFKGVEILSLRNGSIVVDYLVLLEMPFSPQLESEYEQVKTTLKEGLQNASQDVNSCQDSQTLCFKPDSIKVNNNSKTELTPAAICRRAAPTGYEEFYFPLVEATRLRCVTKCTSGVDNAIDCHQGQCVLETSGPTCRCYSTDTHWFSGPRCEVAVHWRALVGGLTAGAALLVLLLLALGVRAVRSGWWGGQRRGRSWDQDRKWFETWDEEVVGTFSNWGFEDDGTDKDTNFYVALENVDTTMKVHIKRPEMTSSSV

Biological target: RELA, also called P65 (human (endogenous in H1299 and H1975)) (UniProt Q04206)
Experiment: co-IP; endogenous proteins in H1299 and H1975 cells; lysis in RIPA buffer with protease and phosphatase inhibitors; BeaverBeads Protein A/G Kit; which protein was precipitated is not told

**Q.** With “Mucin 3A (MUC3A) (from UniProt Q02505 16-3323)” as the substance, how does the binding read?
**A.** The binding was “binds”.
